Experimental data taken from US20120100361A1, “ANTISEPTIC COMPOSITION FOR ENGINEERING WOOD PRODUCTION, AND ENGINEERING WOOD” (SDS BIOTECH K.K., priority 2009, published 2012).
The name of at least one read-out is uncertain. Some results were stated once for a whole list of compounds, not compound by compound.

How the values were obtained:
[1] = system: fungus cellar soil-bed; assay: Fungus cellar soil-bed test of preservative LVL (JIS K1571:2004); details: 25° C., grade 0 sound condition to 5 out of shape due to the decay
Experimental: (§1) 1000 g of the phenol resin-based glue Deernol D-117 (manufactured by Oshika Corporation), 70 g of wheat flour and 100 g of calcium carbonate were mixed and well kneaded. A solution of each of the compounds of Example 1 and Comparative Example 1, 2 and 5 to 25 was added to the kneaded product so that the final concentrations of the compound in the wood become 150, 100, 50 and 25 g/m^3 and further kneaded. 18 g of the above kneaded product was applied onto each of the surface of glue line of the three Radiata pine veneer sheets having an area of 30 x 30 cm and thickness of 3 mm. After bonding the three sheets to each other, the sheets were subjected to cold pressing at room temperature for 20 minutes and the thermal pressure of 140° C. (10 kgf/cm^2) was applied to the sheets for two minutes to obtain the target LVL. Each of the prepared LVL was processed into the size of 20×20×9 mm to serve as a test sample.
The preservative LVL was prepared in the same manner in Preparation Example 3. Each of the prepared LVL was processed into the size of 9×9×100 mm to serve as a test sample.
(§2) The samples of the plywood and LVL prepared in Preparation Examples 4 and 5 were evaluated by the fungus cellar soil-bed test according to JIS K1571:2004. The weather resistance operation and the test method for the antiseptic effect were performed according to the above test method. The test was carried out for six months setting the test temperature to 25° C. (because the grade average of the decay damage of the non-treated test samples exceeded 2.5 in six months). […] The effect in the glue line treatment was actually investigated with respect to a number of existing antiseptics, and it was confirmed that only epoxyconazole is suitable for the glue line treatment at a low concentration.

[2] = system: Trametes versicolor; assay: Test for antiseptic effects of preservative plywood (JIS K1571:2004); format: cell-based; details: urea melamine resin
Experimental: (§3) 1000 g of urea melamine resin (PWP-60, manufactured by Oshika Corporation) was added to 180 g of wheat flour and fully kneaded to thereby obtain a kneaded product. 8 g of ammonium chloride was added as a hardening agent to the kneaded product, and a solution of each of the compounds of Example 1 and Comparative Example 1, 2 and 5 to 25 was further added thereto so that the final concentrations of the compound in the wood become 150, 100, 50 and 25 g/m^3 and kneaded. 18 g of the above kneaded product was applied onto each of the bonding plane of the three red lauan veneer sheets having an area of 30 x 30 cm and thickness of 0.85 mm/2.4 mm/0.85 mm. After bonding the three sheets to each other, the sheets were subjected to cold pressing at room temperature for 20 minutes and the thermal pressure of 120° C. (10 kgf/cm^2) was applied to the sheets for two minutes to obtain the target plywood. Each of the prepared plywood was processed into the size of 20×20×4.1 mm to serve as a test sample.
(§4) The samples of the plywood and LVL prepared in Preparation Examples 2 and 3 were evaluated by the test for antiseptic effects for the drug pressure treatment according to JIS K1571:2004. The weather resistance operation and the test method for the antiseptic effect were performed according to the above test method.

[3] = system: Fomitopsis palustris; assay: as above; format: cell-based; details: for amount showing the antiseptic effect on Fomitopsis palustris: glue line method, summary of Tables 2 and 3; for average rate of decrease in weight: plywood, urea melamine resin, Fomitopsis palustris
Experimental: as §3, §4

[4] = system: Trametes versicolor; assay: Test for antiseptic effects of preservative LVL (JIS K1571:2004); format: cell-based; details: phenol resin
Experimental: as §1, §4

[5] = system: Fomitopsis palustris; assay: as above; format: cell-based; details: phenol resin
Experimental: as §1, §4

[6] = system: fungus cellar soil-bed; assay: Fungus cellar soil-bed test of preservative plywood (JIS K1571:2004); details: 25° C., grade 0 sound condition to 5 out of shape due to the decay
Experimental: as §3
The preservative plywood was prepared in the same manner in Preparation Example 2. Each of the prepared plywood was processed into the size of 8.9 x 8.9×100 mm to serve as a test sample.
as §2

[7] = treated amount 25 g/m^3, six months
[8] = treated amount 50 g/m^3, six months
[9] = treated amount 100 g/m^3, six months
[10] = treated amount 150 g/m^3, six months

| Structure (SMILES) | Grade average of the decay damage of five test samples [1, 7] | Grade average of the decay damage of five test samples [1, 8] | Grade average of the decay damage of five test samples [1, 9] | Grade average of the decay damage of five test samples [1, 10] | average rate of decrease in weight ([2]; treated amount 25 g/m^3) | average rate of decrease in weight ([2]; treated amount 50 g/m^3) | average rate of decrease in weight ([2]; treated amount 100 g/m^3) | average rate of decrease in weight ([2]; treated amount 150 g/m^3) | average rate of decrease in weight ([3]; treated amount 25 g/m^3) | average rate of decrease in weight ([3]; treated amount 50 g/m^3) | average rate of decrease in weight ([3]; treated amount 100 g/m^3) | average rate of decrease in weight ([3]; treated amount 150 g/m^3) | average rate of decrease in weight ([4]; treated amount 25 g/m^3) | average rate of decrease in weight ([4]; treated amount 50 g/m^3) | average rate of decrease in weight ([4]; treated amount 100 g/m^3) | average rate of decrease in weight ([4]; treated amount 150 g/m^3) | average rate of decrease in weight ([5]; treated amount 25 g/m^3) | average rate of decrease in weight ([5]; treated amount 50 g/m^3) | average rate of decrease in weight ([5]; treated amount 100 g/m^3) | average rate of decrease in weight ([5]; treated amount 150 g/m^3) | also measured |
| --- | --- | --- | --- | --- | --- | --- | --- | --- | --- | --- | --- | --- | --- | --- | --- | --- | --- | --- | --- | --- | --- |
| CCCCC(O)(Cn1cncn1)c1ccc(Cl)cc1Cl (centres unmarked) [Comparative Example 1, hexaconazole] | 3.0 | 3.2 | 2.8 | 2.8 | X (The average rate of decrease in weight was 3% or more.) | ◯ (The average rate of decrease in weight was less than 3%.) | ◯ (The average rate of decrease in weight was less than 3%.) | ◯ (The average rate of decrease in weight was less than 3%.) | X (The average rate of decrease in weight was 3% or more.) | ◯ (The average rate of decrease in weight was less than 3%.) | ◯ (The average rate of decrease in weight was less than 3%.) | ◯ (The average rate of decrease in weight was less than 3%.) | X (The average rate of decrease in weight was 3% or more.) | ◯ (The average rate of decrease in weight was less than 3%.) | ◯ (The average rate of decrease in weight was less than 3%.) | ◯ (The average rate of decrease in weight was less than 3%.) | X (The average rate of decrease in weight was 3% or more.) | ◯ (The average rate of decrease in weight was less than 3%.) | ◯ (The average rate of decrease in weight was less than 3%.) | ◯ (The average rate of decrease in weight was less than 3%.) | amount showing the antiseptic effect on Fomitopsis palustris [3]: ≥ 50 g/m^3; Grade average of the decay damage of five test samples [6, 7]: 2.8; Grade average of the decay damage of five test samples [6, 8]: 3.0; Grade average of the decay damage of five test samples [6, 9]: 3.0; Grade average of the decay damage of five test samples [6, 10]: 2.6 |
| C[Si](C)(C)CC(O)(Cn1cncn1)c1ccc(F)cc1F (centres unmarked) [Comparative Example 2, 2-(2,4-difluorophenyl)-1-(1H-1,2,4-triazole-1-yl)-3-(trimethylsilyl)propane-2-ol] | 2.8 | 3.0 | 3.2 | 2.6 | X (The average rate of decrease in weight was 3% or more.) | X (The average rate of decrease in weight was 3% or more.) | ◯ (The average rate of decrease in weight was less than 3%.) | ◯ (The average rate of decrease in weight was less than 3%.) | X (The average rate of decrease in weight was 3% or more.) | ◯ (The average rate of decrease in weight was less than 3%.) | ◯ (The average rate of decrease in weight was less than 3%.) | ◯ (The average rate of decrease in weight was less than 3%.) | X (The average rate of decrease in weight was 3% or more.) | ◯ (The average rate of decrease in weight was less than 3%.) | ◯ (The average rate of decrease in weight was less than 3%.) | ◯ (The average rate of decrease in weight was less than 3%.) | X (The average rate of decrease in weight was 3% or more.) | X (The average rate of decrease in weight was 3% or more.) | ◯ (The average rate of decrease in weight was less than 3%.) | ◯ (The average rate of decrease in weight was less than 3%.) | amount showing the antiseptic effect on Fomitopsis palustris [3]: ≥ 50 g/m^3; Grade average of the decay damage of five test samples [6, 7]: 3.0; Grade average of the decay damage of five test samples [6, 8]: 2.6; Grade average of the decay damage of five test samples [6, 9]: 3.2; Grade average of the decay damage of five test samples [6, 10]: 3.2 |
| CC(C1CC1)C(O)(Cn1cncn1)c1ccc(Cl)cc1 (centres unmarked) [Comparative Example 5, cyproconazole] | 2.8 | 3.4 | 2.6 | 1.6 | X (The average rate of decrease in weight was 3% or more.) | X (The average rate of decrease in weight was 3% or more.) | X (The average rate of decrease in weight was 3% or more.) | ◯ (The average rate of decrease in weight was less than 3%.) | X (The average rate of decrease in weight was 3% or more.) | X (The average rate of decrease in weight was 3% or more.) | X (The average rate of decrease in weight was 3% or more.) | ◯ (The average rate of decrease in weight was less than 3%.) | X (The average rate of decrease in weight was 3% or more.) | X (The average rate of decrease in weight was 3% or more.) | X (The average rate of decrease in weight was 3% or more.) | ◯ (The average rate of decrease in weight was less than 3%.) | X (The average rate of decrease in weight was 3% or more.) | X (The average rate of decrease in weight was 3% or more.) | X (The average rate of decrease in weight was 3% or more.) | ◯ (The average rate of decrease in weight was less than 3%.) | Grade average of the decay damage of five test samples [6, 7]: 3.2; Grade average of the decay damage of five test samples [6, 8]: 3.2; Grade average of the decay damage of five test samples [6, 9]: 2.6; Grade average of the decay damage of five test samples [6, 10]: 1.2 |
